PubChem BioAssay AID504774 | Drosophila RNAi Screening Center, 2011

Test: 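Knock-downs that shift viability of MMS-exposed cells relative to untreated ones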 (primary screen)
Cells: Drosophila Kc167 cells
Reagents: long dsRNA against Drosophila genes, about 0.25 µg dsRNA per well
Time to read-out: about 6 days: 3 days knock-down, then 3 days with or without MMS
Treatment: methyl methanesulphonate 0.004% (w/v) for 3 days after knock-down
Measurement: 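Viability in wells given MMS, read as ATP luminescence, normalised by quantiles plate by plate and averaged across replicates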
Direction: mean viability with MMS and viability with MMS: higher = more surviving cells after MMS
In all, the deposit lists about 23,000 reagents; below is an unselected part of those with a known target gene and a result. 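Values are quantile-normalised luminescence on an arbitrary scale; higher means more cells surviving MMS.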 A plus sign joins genes that one reagent is predicted to hit.

| gene | DRSC id | mean viability with MMS | viability with MMS, replicate 1 | viability with MMS, replicate 2 |
| --- | --- | --- | --- | --- |
| CG7656 | DRSC10900 | 3.51e6 | 3.87e6 | 4.08e6 |
| Tlk | DRSC17731 | 3.31e6 | 3.73e6 | 3.75e6 |
| Tlk | DRSC17835 | 2.82e6 | 3.41e6 | 3.40e6 |
| Tlk | DRSC22924 | 3.41e6 | 3.88e6 | 3.94e6 |
| Tlk | DRSC22926 | 3.13e6 | 3.75e6 | 3.78e6 |
| Tlk | DRSC22938 | 3.60e6 | 4.07e6 | 4.06e6 |
| Tlk | DRSC23163 | 2.84e6 | 3.08e6 | 3.16e6 |
| s-cup | DRSC06277 | 3.50e6 | 4.00e6 | 3.98e6 |
| s-cup | DRSC06278 | 3.47e6 | 3.98e6 | 3.97e6 |
| ND-MWFE | DRSC06364 | 3.60e6 | 3.92e6 | 4.07e6 |
| CG30291 | DRSC03842 | 3.52e6 | 4.00e6 | 3.98e6 |
| gas | DRSC04521 | 3.40e6 | 3.80e6 | 3.86e6 |
| Arpc3A | DRSC15596 | 3.46e6 | 3.93e6 | 3.89e6 |
| CG42238 | DRSC03180 | 3.51e6 | 4.18e6 | 3.77e6 |
| Cad89D | DRSC15022 | 3.24e6 | 3.69e6 | 3.62e6 |
| CG7362 | DRSC16236 | 3.80e6 | 4.04e6 | 4.10e6 |
| CG5860 | DRSC15896 | 3.51e6 | 3.95e6 | 4.02e6 |
| RpS27A | DRSC03421 | 3.29e6 | 3.64e6 | 3.74e6 |
| Gr68a | DRSC10803 | 3.81e6 | 4.39e6 | 4.17e6 |
| Pkg21D | DRSC00772 | 3.67e6 | 4.00e6 | 4.35e6 |
| CG12608 | DRSC19472 | 3.71e6 | 4.11e6 | 4.13e6 |
| emb | DRSC03528 | 3.28e6 | 3.89e6 | 3.40e6 |
| Nxf3 | DRSC21749 | 3.44e6 | 3.90e6 | 3.95e6 |
| Srg1 | DRSC14640 | 3.55e6 | 4.08e6 | 3.95e6 |
| Gr22c | DRSC22081 | 3.72e6 | 4.17e6 | 4.17e6 |
| Isha | DRSC04456 | 3.57e6 | 3.81e6 | 4.11e6 |
| CG10616 | DRSC09750 | 3.51e6 | 4.00e6 | 3.95e6 |
| fon | DRSC02507 | 3.53e6 | 3.86e6 | 4.16e6 |
| CG41520 | DRSC21102 | 3.66e6 | 4.09e6 | 4.16e6 |
| CG41520 | DRSC21103 | 3.46e6 | 3.94e6 | 3.93e6 |
| kz | DRSC18786 | 3.28e6 | 3.72e6 | 3.80e6 |
| Nup160 | DRSC02774 | 3.08e6 | 3.58e6 | 3.60e6 |

8 consecutive entries from above:
| gene | DRSC id | mean viability with MMS | viability with MMS, replicate 1 | viability with MMS, replicate 2 |
| --- | --- | --- | --- | --- |
| Srg1 | DRSC14640 | 3.55e6 | 4.08e6 | 3.95e6 |
| Gr22c | DRSC22081 | 3.72e6 | 4.17e6 | 4.17e6 |
| Isha | DRSC04456 | 3.57e6 | 3.81e6 | 4.11e6 |
| CG10616 | DRSC09750 | 3.51e6 | 4.00e6 | 3.95e6 |
| fon | DRSC02507 | 3.53e6 | 3.86e6 | 4.16e6 |
| CG41520 | DRSC21102 | 3.66e6 | 4.09e6 | 4.16e6 |
| CG41520 | DRSC21103 | 3.46e6 | 3.94e6 | 3.93e6 |
| kz | DRSC18786 | 3.28e6 | 3.72e6 | 3.80e6 |

The list goes on.
| gene | DRSC id | mean viability with MMS | viability with MMS, replicate 1 | viability with MMS, replicate 2 |
| --- | --- | --- | --- | --- |
| Mbs | DRSC09414 | 3.42e6 | 3.94e6 | 3.85e6 |
| Mbs | DRSC10525 | 3.63e6 | 4.02e6 | 4.19e6 |
| Mbs | DRSC10553 | 3.55e6 | 3.88e6 | 4.04e6 |
| CG7634 | DRSC11843 | 3.64e6 | 4.11e6 | 4.13e6 |
| dco | DRSC16929 | 3.24e6 | 3.80e6 | 3.71e6 |
| natalisin | DRSC14966 | 3.26e6 | 3.73e6 | 3.65e6 |
| natalisin | DRSC14967 | 3.52e6 | 4.16e6 | 3.82e6 |
| PDCD-5 | DRSC09955 | 3.46e6 | 3.79e6 | 4.01e6 |
| Mks1 | DRSC19697 | 3.29e6 | 3.85e6 | 3.69e6 |
| CG15617 | DRSC06570 | 3.51e6 | 4.07e6 | 3.90e6 |
| CG11112 | DRSC06038 | 3.50e6 | 3.91e6 | 4.04e6 |
| CG14191 | DRSC19546 | 3.69e6 | 4.09e6 | 4.22e6 |
| CG3927 | DRSC04433 | 3.67e6 | 4.20e6 | 4.12e6 |
| CG3927 | DRSC22813 | 3.60e6 | 4.00e6 | 4.16e6 |
| sunn | DRSC21659 | 3.40e6 | 3.91e6 | 3.86e6 |
| CG6420 | DRSC16035 | 4.38e6 | 5.37e6 | 5.37e6 |
| CG3473 | DRSC01915 | 3.53e6 | 4.01e6 | 3.99e6 |
| Gpxl | DRSC06538 | 3.51e6 | 3.99e6 | 3.97e6 |
| ouib | DRSC14376 | 3.41e6 | 3.90e6 | 3.85e6 |
| CG13796 + CG31904 | DRSC22161 | 3.59e6 | 4.08e6 | 4.02e6 |
| san | DRSC07695 | 3.55e6 | 4.06e6 | 4.00e6 |
| CG8372 | DRSC03086 | 3.71e6 | 4.32e6 | 4.12e6 |
| CG16756 | DRSC18115 | 3.52e6 | 3.88e6 | 4.13e6 |
| Np | DRSC06089 | 3.55e6 | 4.07e6 | 3.98e6 |
| Np | DRSC07094 | 3.72e6 | 4.18e6 | 4.10e6 |
| Np | DRSC22421 | 3.61e6 | 4.04e6 | 4.10e6 |
| TpnC41C | DRSC04916 | 3.59e6 | 4.05e6 | 4.10e6 |
| Ir51a | DRSC06256 | 3.84e6 | 4.07e6 | 4.17e6 |
| Cpr23B | DRSC00555 | 3.40e6 | 3.86e6 | 3.79e6 |
| Eig71Ej | DRSC11157 | 3.66e6 | 4.11e6 | 4.15e6 |
| Flad1 | DRSC19898 | 3.71e6 | 4.01e6 | 4.10e6 |
| PGRP-LD + Pmi | DRSC10512 | 3.56e6 | 4.02e6 | 4.07e6 |
| PGRP-LD + Pmi | DRSC10513 | 3.58e6 | 3.90e6 | 3.98e6 |
| CG10417 | DRSC04846 | 3.19e6 | 4.04e6 | 3.80e6 |
| CG13062 | DRSC09945 | 3.54e6 | 3.88e6 | 4.15e6 |
| CG10710 | DRSC09784 | 3.44e6 | 3.81e6 | 3.99e6 |
